Source: publication PMC9927946
Results are given in words; binding and its absence hold for the method and conditions named. Binding seen in cells or lysates may run through a third protein. A yes stands for co-enrichment or nearness to the bait. Other partners may have been found.

Amino acid sequences for entries named in this document (tags omitted).
UniProt P61081: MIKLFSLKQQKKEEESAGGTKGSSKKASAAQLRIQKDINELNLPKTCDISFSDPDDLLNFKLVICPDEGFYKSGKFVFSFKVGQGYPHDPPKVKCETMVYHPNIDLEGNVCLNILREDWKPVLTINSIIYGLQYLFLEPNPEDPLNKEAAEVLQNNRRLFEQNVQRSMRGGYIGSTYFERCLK

What was measured:
[1] = target: SHP2 (bait of the co-IP for mass analysis) (UniProt Q06124); assay: affinity purification with mass spectrometry; mass analysis of SHP2 co-IP proteins (Supplemental Figure 2B); cells not given
[2] = target: SHP2, bait of the co-immunoprecipitate analysed by mass spectrometry (human (in HEK293T)) (UniProt Q06124); assay: affinity purification with mass spectrometry; SHP2 co-immunoprecipitate from lysates of HEK293T cells; SDS-PAGE, in-gel digestion, mass spectrometry (Maxquant)

| binding [1] | binding [2] | Substance |
| --- | --- | --- |
| binds |  | NEDD8-conjugating E2 UBE2M (from UniProt P61081 1-183) (enzyme) |
|  | binds | UBE2M (NEDD8-conjugating E2) (from UniProt P61081 1-183) (enzyme) |
